Measurements as given in US20060099686A1 (SCIL PROTEINS, published 2006).

Chains of the proteins cited; added tags and fusions are not shown. Residues count along the entry.
UniProt P02769, 25-607 limits assumed: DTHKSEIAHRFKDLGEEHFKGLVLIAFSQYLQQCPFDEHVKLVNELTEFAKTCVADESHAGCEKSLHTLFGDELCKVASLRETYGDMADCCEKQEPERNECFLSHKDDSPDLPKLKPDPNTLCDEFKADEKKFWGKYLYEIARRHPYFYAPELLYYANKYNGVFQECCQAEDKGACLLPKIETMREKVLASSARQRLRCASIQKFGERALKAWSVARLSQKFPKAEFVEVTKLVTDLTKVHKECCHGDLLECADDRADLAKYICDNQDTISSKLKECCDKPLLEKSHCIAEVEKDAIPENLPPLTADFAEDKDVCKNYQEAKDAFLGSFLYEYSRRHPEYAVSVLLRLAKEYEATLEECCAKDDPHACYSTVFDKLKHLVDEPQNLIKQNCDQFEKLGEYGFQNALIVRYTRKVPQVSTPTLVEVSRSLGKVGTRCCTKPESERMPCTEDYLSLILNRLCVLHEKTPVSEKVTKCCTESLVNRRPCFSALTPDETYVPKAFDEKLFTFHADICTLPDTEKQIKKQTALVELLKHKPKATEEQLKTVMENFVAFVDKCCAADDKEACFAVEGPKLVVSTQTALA

Biological target: T1, bovine serum albumin (bovine, UniProt P02769 25-607)
T1 construct: also called BSA
Test: ELISA, BSA (carrier protein) coated on the microtiter plate, detection by Ni-NTA/POD, mean of three wells, A405

binding result: no binding (tested: 4 µM)
B1: SPU-3-H13-O (designed binder)
chain: MGIGVKTLTGKTITLEVEPSDTIENVKAKIQDKEGIPPDQQRLAFAGRQLEDGLTLSDYNIFFVTNLHLALLLRALEHHHHHH
notes: Selected against hydrocortisone (a hapten); also called ubiquitin variation SPU-3-H13
